PubChem BioAssay AID504791 – Drosophila RNAi Screening Center, 2011

Assay: 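Genes whose knock-down strengthens or weakens small-RNA reporter silencing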 (primary screen)
Cell system: Drosophila S2-derived reporter cells
Reagents: long dsRNA against Drosophila genes, about 150-250 ng dsRNA per well (siRNA assay); about 80-120 ng (miRNA assay)
Duration: about 5 days (siRNA assay); about 4 days (miRNA assay)
Treatment: copper sulfate induction of reporters: 25 µM (siRNA assay); 200 mM stated (miRNA assay), 1-2 days before reading
Measured: 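Per-well ratio of Renilla over firefly light, expressed relative to that plate's average ratio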
Active means: 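a well was a first-pass pick when its plate-scaled ratio rose above 1.5 (siRNA assay) or 1.6 (miRNA assay), or dropped below 0.6; a gene counted only if two separate dsRNAs agreed on retest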
The deposit covers about 23,000 reagents; below is a random part of those with a known target gene and a result. In the full data, 199 (0.86%) got an active call. 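Plate-scaled ratios behind the calls are not deposited; printed light signals are raw; many rows marked increased or decreased are still called inactive.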 Unmarked entries are inactive. A plus sign joins genes that one reagent is predicted to hit. Not stated in the record: the direction of the score.

gene	amplicon	stable siRNA reporter change	stable assay Renilla, run 1 (luminescence)	stable assay firefly, run 1 (luminescence)
scf (supercoiling factor)	DRSC08735		6963	4.01e5
Efr (ER GDP-fucose transporter)	DRSC18322		6640	2.70e5
Jhbp11 (Juvenile hormone binding protein 11)	DRSC15183		6172	4.74e5
CG17010	DRSC02559		45778	2.82e5
CG14275	DRSC02379		6411	3.49e5
VhaPPA1-1 (Vacuolar H[+] ATPase PPA1 subunit 1)	DRSC16170		7618	4.79e5
CG11406	DRSC04010		4855	5.03e5
CG11406	DRSC04108		6890	4.57e5
Cyp9f2 (Cytochrome P450 9f2)	DRSC16635		8094	4.35e5
Paris (Parkin Interacting Substrate)	DRSC00451		14795	5.34e5
CG11570	DRSC09844		5935	3.73e5
Delta	DRSC16648		7776	4.06e5
CG10038	DRSC14178		8366	4.87e5
Slimp (Seryl-tRNA synthetase-like insect mitochondrial protein)	DRSC13656		4144	3.34e5
Ask1 (Apoptotic signal-regulating kinase 1)	DRSC16789		6658	3.40e5
Ask1 (Apoptotic signal-regulating kinase 1)	DRSC21697		10018	6.02e5
CG2006	DRSC15412		3632	4.00e5
mad2	DRSC10274		6704	4.07e5
twit (target of wit)	DRSC03210		20925	5.28e5
CG7290	DRSC10800		7242	5.06e5
CG18278 + CG30059	DRSC05418		5448	3.53e5
trv (trivet)	DRSC13846		3635	3.09e5
trv (trivet)	DRSC14559		5722	3.60e5
trv (trivet)	DRSC14560		6726	4.57e5
trv (trivet)	DRSC14561		6398	3.79e5

9 consecutive records already listed, quoted:
gene	amplicon	stable siRNA reporter change	stable assay Renilla, run 1 (luminescence)	stable assay firefly, run 1 (luminescence)
CG11570	DRSC09844		5935	3.73e5
Delta	DRSC16648		7776	4.06e5
CG10038	DRSC14178		8366	4.87e5
Slimp (Seryl-tRNA synthetase-like insect mitochondrial protein)	DRSC13656		4144	3.34e5
Ask1 (Apoptotic signal-regulating kinase 1)	DRSC16789		6658	3.40e5
Ask1 (Apoptotic signal-regulating kinase 1)	DRSC21697		10018	6.02e5
CG2006	DRSC15412		3632	4.00e5
mad2	DRSC10274		6704	4.07e5
twit (target of wit)	DRSC03210		20925	5.28e5

Further records:
gene	amplicon	stable siRNA reporter change	stable assay Renilla, run 1 (luminescence)	stable assay firefly, run 1 (luminescence)
RpL6 (Ribosomal protein L6)	DRSC14323		9637	4.23e5
RpL6 (Ribosomal protein L6)	DRSC22384		10155	4.54e5
Or98b (Odorant receptor 98b)	DRSC16775		6703	3.65e5
Or98b (Odorant receptor 98b)	DRSC21751		8520	4.26e5
CG40378 (retired record)	DRSC20958		4200	4.57e5
CG40378 (retired record)	DRSC22174		8475	4.69e5
LysX (Lysozyme X)	DRSC08678		6319	4.16e5
CG31678	DRSC02618		10068	7.83e5
CG31678	DRSC02619		6430	4.19e5
SamDC (S-adenosylmethionine decarboxylase)	DRSC03429		31130	5.79e5
CG34002	DRSC09512		7471	5.23e5
CG34002	DRSC11953		5634	5.38e5
CG15465	DRSC18048		6015	2.68e5
pico	DRSC19430		5219	3.57e5
Cyp310a1 (Cytochrome P450 310a1)	DRSC03301		8123	1.82e6
crm (cramped)	DRSC18754		4055	3.41e5
egl (egalitarian)	DRSC04682		6544	3.88e5
und (uninitiated)	DRSC03629		5231	5.69e5
Grl36a (Gustatory receptor-like 36a)	DRSC21748		7938	4.58e5
MCU (Mitochondrial calcium uniporter)	DRSC10339		6650	3.91e5
slp2 (sloppy paired 2)	DRSC00836		6948	3.47e5
Cpsf160 (Cleavage and polyadenylation specificity factor 160)	DRSC05968		8199	4.89e5
CG7382	DRSC03052		2.54e5	1.97e5
CG15876	DRSC08484		6558	4.85e5
His3:CG33818 + His3:CG33857 + His3:CG33806 + 20 more	DRSC21267	reporter ratio lowered past the hit cutoff (active)	5671	7.34e5
betaTub85D (beta-Tubulin at 85D)	DRSC16910		6774	3.59e5
Ire1 (Inositol-requiring enzyme-1)	DRSC15606		8705	5.22e5
Gbp2 (Growth-blocking peptide 2)	DRSC06069		10402	4.66e5
HLH3B (Helix loop helix protein 3B)	DRSC18669		5695	3.06e5
grn (grain)	DRSC12666		4680	2.48e5
grn (grain)	DRSC16961		6631	4.41e5
CG31807	DRSC01550		5788	4.47e5
